For at least one compound, name, drawing or mass did not settle the structure.
System: HT-22 cells
Assay: Effects of estratrienes with and without glutathione on neurotoxicity of βAP 25-35 in HT-22 cells
Details: concurrent treatment with βAP 25-35

Q: With `C[C@@]12CCC[C@H]1[C@@H]1CCc3cc(O)ccc3[C@H]1CC2` [E-3-ol, estratriene-3-ol] as the compound, how does the neuroprotection read?
A: dose-dependent neuroprotection

— patent publication US5972923A, “Methods and compositions to enhance the cytoprotective effects of polycyclic phenolic compounds through the synergistic interaction with anti-oxidants” (priority 1998, dated 1999)
